Experimental data reported in patent US20240067665A1, “SMALL MOLECULES FOR BORON NEUTRON CAPTURE THERAPY” (Aviko Radiopharmaceuticals, LLC, priority 2022, published 2024).
Values joined by “and” are separate entries in the source; they are usually repeats but may differ in a detail not shown here. Identical values can stand only once. For part of these data: At least one read-out could not be matched to a standard name with certainty. Some entries share one result that the patent states for a list of compounds.

Key:
NIH-3T3 = experiment: Cell uptake assay, NIH-3T3 cells; type: cell-based, mouse; conditions: 100 uM
Protocol: • 1.1.1 15 mL of cell culture medium was placed into a T225 flask. • 1.1.2 The flask was placed in a humidified 37° C., 5% CO2 incubator for 15 minutes to allow medium to equilibrate to the proper pH and temperature. • 1.1.3 The vial was removed from liquid nitrogen and thawed rapidly by placing at 37° C. in a water bath with gentle agitation for 1-2 minutes and then decontaminated by wiping with 70% ethanol before opening in a Class II biological safety cabinet. • 1.1.4 The vial contents were transferred dropwise into 10 mL of cell culture medium in a sterile 15 mL conical tube. • 1.1.5 The cells were centrifuged at 1,300 rpm for 5 minutes. • 1.1.6 The supernatant was aspirated and re-suspended the cells and transferred the cells into T225 flask containing cell culture medium.
• 1.2.1 Culture medium were renewed every 2-3 days. • 1.2.2 Keep the flask in a humidified 37° C., 5% CO2 incubator
• Cells were harvested and diluted in culture medium to the designated concentration. Then the cells were cultured in T25 flasks, one T25 flask for one sample. 2.2 Formulation of test compounds • 2.2.1 L-Boronophenylalanine (L-BPA, 4-boron-L-phenylalanine, Purity: 95%, Chemical formula: C9H12BNO4, MW: 209.01, CAS: 76410-58-7) and fructose were dissolved in PBS at a molar ratio of 1:5, and then a 1.27 M ratio of 1 N NaOH is added. […]

[1] = system: SAS (head & neck cancer), U87-MG (glioblastoma) and B6 (melanoma) relative to NIH-3T3; experiment: Cell uptake assays, cancer cell lines compared with normal cell line and with BPA; type: cell-based, human; conditions: for Selective uptake by cancer cell lines relative to normal cell line: SAS, U87-MG and B6 relative to NIH-3T3

SMILES | Cell uptake, Mean, NIH-3T3 (NIH-3T3; 1 hour) | Cell uptake, Mean, NIH-3T3 (NIH-3T3; 4 hours) | Selective uptake by cancer cell lines relative to normal cell line [1] | Uptake in cancer cells relative to BPA [1]
N[C@@H](Cc1ccc(B(O)O)cc1)C(=O)O [BPA, 4-Borono-L-phenylalanine, reference compound] | 91.4 ng/10^6 cell and 105 ng/10^6 cell and 69.7 ng/10^6 cell and 110 ng/10^6 cell and 97.8 ng/10^6 cell and 118 ng/10^6 cell | 109 ng/10^6 cell and 98.2 ng/10^6 cell and 98.0 ng/10^6 cell and 129 ng/10^6 cell and 106 ng/10^6 cell and 112 ng/10^6 cell |  | 
N[C@@H](Cc1cccc(OCB(O)O)c1)C(=O)O [compound 1, (S)-2-amino-3-(3-(boronomethoxy)phenyl)propanoic acid] |  |  | selective partitioning | increased uptake
N[C@@H](Cc1ccc(OCB(O)O)cc1F)C(=O)O [compound 2, (S)-2-amino-3-(4-(boronomethoxy)-2-fluorophenyl)propanoic acid] |  |  | selective partitioning | increased uptake
N[C@@H](Cc1ccc(OCCB(O)O)cc1)C(=O)O [compound 3, (2S)-2-amino-3-{4-[2-(dihydroxyboranyl)ethoxy]phenyl}propanoic acid] |  |  | selective partitioning | increased uptake
N[C@@H](Cc1ccc(OCB(O)O)c(F)c1)C(=O)O [compound 10, (2S)-2-amino-3-{4-[(dihydroxyboranyl)methoxy]-3-fluorophenyl}propanoic acid] |  |  | selective partitioning | increased uptake
N[C@@H](Cc1ccc(F)c(OCB(O)O)c1)C(=O)O [compound 11, (2S)-2-amino-3-{3-[(dihydroxyboranyl)methoxy]-4-fluorophenyl}propanoic acid] |  |  | selective partitioning | increased uptake
N[C@@H](Cc1cc(F)cc(OCB(O)O)c1)C(=O)O [compound 13, (2S)-2-amino-3-[3-[(dihydroxyboranyl)methoxy]-5-fluorophenyl]propanoic acid] |  |  | selective partitioning | increased uptake
N[C@@H](Cc1cccc(C2(B(O)O)CC2)c1)C(=O)O [compound 14, (2S)-2-amino-3-{3-[1-(dihydroxyboranyl)cyclopropyl]phenyl}propanoic acid] |  |  | selective partitioning | increased uptake
N[C@@H](Cc1ccc(C2(B(O)O)CC2)cc1)C(=O)O [compound 15, (2S)-2-amino-3-{4-[1-(dihydroxyboranyl)cyclopropyl]phenyl}propanoic acid] |  |  | selective partitioning | increased uptake
